In the supplement of paper PMC8728848:
Some of the results follow.

Experiments:
Assay in all cases: glycan array binding signal (z-score within array); higher = stronger binding
Conditions in all cases: glycan notation: IUPAC condensed, linker removed
Neu5Ac(a2-3)Gal(b1-4)Glc = target: Neu5Ac(a2-3)Gal(b1-4)Glc
Summary of the method: (§1)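 Arrays were curated from the Consortium for Functional Glycomics database, 3228 in total, and kept only where the protein sequence was available. Binding is expressed as a within-array Z-score. This score was averaged across arrays of the same protein sequence at different concentrations or buffers and across linkers, and negative values can be read as non-binding.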

[1] = target: Neu5Ac(a2-3)Gal(b1-4)GlcNAc
Summary of the method: as §1

[2] = target: Neu5Ac(a2-3)Gal(b1-4)GlcNAc(b1-2)Man
Summary of the method: as §1

[3] = target: Neu5Ac(a2-3)Gal(b1-4)GlcNAc(b1-2)Man(a1-3)[GlcNAc(b1-4)][Neu5Ac(a2-3)Gal(b1-4)GlcNAc(b1-2)Man(a1-6)]Man(b1-4)GlcNAc(b1-4)GlcNAc
Summary of the method: as §1

[4] = target: Neu5Ac(a2-3)Gal(b1-4)GlcNAc(b1-2)Man(a1-3)[Neu5Ac(a2-3)Gal(b1-4)GlcNAc(b1-2)Man(a1-6)]Man(b1-4)GlcNAc(b1-4)GlcNAc
Summary of the method: as §1

[5] = target: Neu5Ac(a2-3)Gal(b1-4)GlcNAc(b1-2)Man(a1-3)[Neu5Ac(a2-3)Gal(b1-4)GlcNAc(b1-2)Man(a1-6)]Man(b1-4)GlcNAc(b1-4)[Fuc(a1-6)]GlcNAc
Summary of the method: as §1

[6] = target: Neu5Ac(a2-3)Gal(b1-4)GlcNAc(b1-2)Man(a1-3)[Neu5Ac(a2-6)Gal(b1-4)GlcNAc(b1-2)Man(a1-6)]Man(b1-4)GlcNAc(b1-4)GlcNAc
Summary of the method: as §1

[7] = target: Neu5Ac(a2-3)Gal(b1-4)GlcNAc(b1-2)[Neu5Ac(a2-3)Gal(b1-4)GlcNAc(b1-4)]Man(a1-3)[GlcNAc(b1-4)][Neu5Ac(a2-3)Gal(b1-4)GlcNAc(b1-2)[Neu5Ac(a2-3)Gal(b1-4)GlcNAc(b1-6)]Man(a1-6)]Man(b1-4)GlcNAc(b1-4)GlcNAc
Summary of the method: as §1

[8] = target: Neu5Ac(a2-3)Gal(b1-4)GlcNAc(b1-2)[Neu5Ac(a2-3)Gal(b1-4)GlcNAc(b1-4)]Man(a1-3)[GlcNAc(b1-4)][Neu5Ac(a2-3)Gal(b1-4)GlcNAc(b1-4)Man(a1-6)]Man(b1-4)GlcNAc(b1-4)GlcNAc
Summary of the method: as §1

[9] = target: Neu5Ac(a2-3)Gal(b1-4)GlcNAc(b1-2)[Neu5Ac(a2-3)Gal(b1-4)GlcNAc(b1-6)]Man(a1-6)[Neu5Ac(a2-3)Gal(b1-4)GlcNAc(b1-2)Man(a1-3)]Man(b1-4)GlcNAc(b1-4)GlcNAc
Summary of the method: as §1

[10] = target: Neu5Ac(a2-3)Gal(b1-4)GlcNAc(b1-2)[Neu5Ac(a2-3)Gal(b1-4)GlcNAc(b1-6)]Man(a1-6)[Neu5Ac(a2-3)Gal(b1-4)GlcNAc(b1-2)Man(a1-3)][GlcNAc(b1-4)]Man(b1-4)GlcNAc(b1-4)GlcNAc
Summary of the method: as §1

[11] = target: Neu5Ac(a2-3)Gal(b1-4)GlcNAc(b1-3)Gal
Summary of the method: as §1

[12] = target: Neu5Ac(a2-3)Gal(b1-4)GlcNAc(b1-3)Gal(b1-3)GlcNAc
Summary of the method: as §1

[13] = target: Neu5Ac(a2-3)Gal(b1-4)GlcNAc(b1-3)Gal(b1-4)GlcNAc
Summary of the method: as §1

[14] = target: Neu5Ac(a2-3)Gal(b1-4)GlcNAc(b1-3)Gal(b1-4)GlcNAc(b1-2)Man(a1-3)[Neu5Ac(a2-3)Gal(b1-4)GlcNAc(b1-3)Gal(b1-4)GlcNAc(b1-2)Man(a1-6)]Man(b1-4)GlcNAc(b1-4)GlcNAc
Summary of the method: as §1

[15] = target: Neu5Ac(a2-3)Gal(b1-4)GlcNAc(b1-3)Gal(b1-4)GlcNAc(b1-3)Gal(b1-4)GlcNAc
Summary of the method: as §1

[16] = target: Neu5Ac(a2-3)Gal(b1-4)GlcNAc(b1-3)Gal(b1-4)GlcNAc(b1-3)Gal(b1-4)GlcNAc(b1-2)Man(a1-3)[Neu5Ac(a2-3)Gal(b1-4)GlcNAc(b1-3)Gal(b1-4)GlcNAc(b1-3)Gal(b1-4)GlcNAc(b1-2)Man(a1-6)]GalNAc
Summary of the method: as §1

[17] = target: Neu5Ac(a2-3)Gal(b1-4)GlcNAc(b1-3)Gal(b1-4)GlcNAc(b1-3)GalNAc
Summary of the method: as §1

[18] = target: Neu5Ac(a2-3)Gal(b1-4)GlcNAc(b1-3)Gal(b1-4)GlcNAc(b1-3)[Neu5Ac(a2-3)Gal(b1-4)GlcNAc(b1-3)Gal(b1-4)GlcNAc(b1-6)]GalNAc
Summary of the method: as §1

[19] = target: Neu5Ac(a2-3)Gal(b1-4)GlcNAc(b1-3)Gal(b1-4)GlcNAc(b1-6)[Gal(b1-3)]GalNAc
Summary of the method: as §1

[20] = target: Neu5Ac(a2-3)Gal(b1-4)GlcNAc(b1-3)Gal(b1-4)[Fuc(a1-3)]GlcNAc
Summary of the method: as §1

[21] = target: Neu5Ac(a2-3)Gal(b1-4)GlcNAc(b1-3)GalNAc
Summary of the method: as §1

[22] = target: Neu5Ac(a2-3)Gal(b1-4)GlcNAc(b1-3)[Neu5Ac(a2-3)Gal(b1-4)GlcNAc(b1-6)]GalNAc
Summary of the method: as §1

[23] = target: Neu5Ac(a2-3)Gal(b1-4)GlcNAc(b1-6)GalNAc
Summary of the method: as §1

[24] = target: Neu5Ac(a2-3)Gal(b1-4)GlcNAc(b1-6)[Gal(b1-3)]GalNAc
Summary of the method: as §1

[25] = target: Neu5Ac(a2-3)Gal(b1-4)GlcNAc(b1-6)[Neu5Ac(a2-3)Gal(b1-3)]GalNAc
Summary of the method: as §1

[26] = target: Neu5Ac(a2-3)Gal(b1-4)GlcNAc6S
Summary of the method: as §1

[27] = target: Neu5Ac(a2-3)Gal(b1-4)[Fuc(a1-3)]GlcNAc
Summary of the method: as §1

[28] = target: Neu5Ac(a2-3)Gal(b1-4)[Fuc(a1-3)]GlcNAc(b1-2)Man
Summary of the method: as §1

[29] = target: Neu5Ac(a2-3)Gal(b1-4)[Fuc(a1-3)]GlcNAc(b1-3)Gal
Summary of the method: as §1

[30] = target: Neu5Ac(a2-3)Gal(b1-4)[Fuc(a1-3)]GlcNAc(b1-3)Gal(b1-4)GlcNAc
Summary of the method: as §1

[31] = target: Neu5Ac(a2-3)Gal(b1-4)[Fuc(a1-3)]GlcNAc(b1-3)Gal(b1-4)[Fuc(a1-3)]GlcNAc(b1-3)Gal(b1-4)[Fuc(a1-3)]GlcNAc
Summary of the method: as §1

[32] = target: Neu5Ac(a2-3)Gal(b1-4)[Fuc(a1-3)]GlcNAc(b1-3)GalNAc
Summary of the method: as §1

[33] = target: Neu5Ac(a2-3)Gal(b1-4)[Fuc(a1-3)]GlcNAc(b1-6)[Gal(b1-3)]GalNAc
Summary of the method: as §1

[34] = target: Neu5Ac(a2-3)Gal(b1-4)[Fuc(a1-3)]GlcNAc(b1-6)[Neu5Ac(a2-3)Gal(b1-3)]GalNAc
Summary of the method: as §1

[35] = target: Neu5Ac(a2-3)Gal(b1-4)[Fuc(a1-3)]GlcNAc6S
Summary of the method: as §1

[36] = target: Neu5Ac(a2-3)Gal6S(b1-4)GlcNAc
Summary of the method: as §1

[37] = target: Neu5Ac(a2-3)Gal6S(b1-4)[Fuc(a1-3)]GlcNAc
Summary of the method: as §1

B1: PX14343I-pdi-501-30-501 (Parabacteroides distasonis) (protein)
chain: SDQYSTETFWKTKEHASAGIMGCYNALKLWRSLHTMEFDMLTANAMPYNEANGTQAIGKGEHLSTTALIGSLWKNCYVGIGRTNTFIANVGGVDMDESEKAKMVGEAKFLRAFYYLSLVDKFGGVPLIIDAPNADEQAELPRNSKEEVVNQIVKDLEEAAAVLPDTYASSDLGRATKGAALALKARTLLYNSRWAEAAQAAKQVMESGVYQLFNDYRHFFSEDNKYNCEVIFDIEAKLPEYPTDYDQNIWRLNRPAPLKELVDTYLCVDGKTIEESPLYDPTRPYENRDPRLLKSIVCIGYPYLGKTITKEDVATTGFGVKKYTSYEDDVTIPLVERSAFNFILIRYAEVLLTYAEAQNEASGPDQSVYDAINQLRRRPDINMPEVPKGLTKDQMREVIRRERRIELTFEGLYYSDILRWKTAEKENNGMMHNYEGIEVVKRSFNPKRDYLWPIPYNQTVLNPNLEQNPNWD
Neu5Ac(a2-3)Gal(b1-4)Glc
  glycan array binding signal (z-score): -0.307
[1]
  glycan array binding signal (z-score): -0.256
[2]
  glycan array binding signal (z-score): 0.484
[3]
  glycan array binding signal (z-score): -0.861
[4]
  glycan array binding signal (z-score): -0.301
[5]
  glycan array binding signal (z-score): -0.534
[6]
  glycan array binding signal (z-score): -0.203
[7]
  glycan array binding signal (z-score): -0.878
[8]
  glycan array binding signal (z-score): -0.853
[9]
  glycan array binding signal (z-score): -0.133
[10]
  glycan array binding signal (z-score): -0.335
[11]
  glycan array binding signal (z-score): -0.617
[12]
  glycan array binding signal (z-score): -0.628
[13]
  glycan array binding signal (z-score): 0.023
[14]
  glycan array binding signal (z-score): -0.252
[15]
  glycan array binding signal (z-score): 0.106
[16]
  glycan array binding signal (z-score): 0.395
[17]
  glycan array binding signal (z-score): -0.567
[18]
  glycan array binding signal (z-score): -0.023
[19]
  glycan array binding signal (z-score): -0.397
[20]
  glycan array binding signal (z-score): -0.4
[21]
  glycan array binding signal (z-score): 0.922
[22]
  glycan array binding signal (z-score): -0.096
[23]
  glycan array binding signal (z-score): -0.142
[24]
  glycan array binding signal (z-score): -0.216
[25]
  glycan array binding signal (z-score): -0.54
[26]
  glycan array binding signal (z-score): -0.006
[27]
  glycan array binding signal (z-score): -0.149
[28]
  glycan array binding signal (z-score): -0.585
[29]
  glycan array binding signal (z-score): -0.533
[30]
  glycan array binding signal (z-score): 0.531
[31]
  glycan array binding signal (z-score): -0.292
[32]
  glycan array binding signal (z-score): -0.408
[33]
  glycan array binding signal (z-score): -0.221
[34]
  glycan array binding signal (z-score): 0.289
[35]
  glycan array binding signal (z-score): -0.951
[36]
  glycan array binding signal (z-score): 0.278
[37]
  glycan array binding signal (z-score): -0.698
